PubChem BioAssay AID1259307, Sanger Institute | 2017

- Assay: 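Identify kinases needed for SW620 growth or enhancing BYL719, cetuximab or trametinib effects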 (primary screen)
- System: SW620 colorectal cancer cells
- Reagents: siRNA pool against human genes
- Conditions: anchor drugs BYL719 at 1 µM, cetuximab at 5 µg/ml or trametinib at 10 nM, each beside a DMSO vehicle arm
- Measurement: 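Cell viability in each well relative to non-targeting controls, averaged over replicates and turned into a robust z-score; synergy with BYL719 (1 µM), cetuximab (5 µg/ml), trametinib (10 nM) versus DMSO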
- Scale: viability robust z-score, no drug and viability vs control, no drug: higher = more viable cells; synergy score with BYL719 and synergy score with cetuximab and synergy score with trametinib: higher = stronger synthetic lethality with the drug
- Rule for the call: 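a knock-down counts as lethal alone if its drug-free robust viability z-score is lower than -3, regardless of synergy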
- Meaning of the calls: active = essential (lethal alone); inactive = no change alone
The deposit covers 794 reagents; this is a part drawn at random. Over the whole deposit, 15 (1.9%) were called active. 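Calls reflect lethality without any drug; synergy scores did not enter the calls.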 Entries without a mark were called inactive. No viability above 1 is reported: the scale is capped. Reagent sequences are not shown. Not given: the amount of reagent, the time to read-out.

| target | viability robust z-score, no drug | viability vs control, no drug | synergy score with BYL719 | synergy score with cetuximab | synergy score with trametinib |
| --- | --- | --- | --- | --- | --- |
| IGF1R (insulin like growth factor 1 receptor) | 0.566 | 0.984 | 0.0433 | 0.0872 | 0.0986 |
| CDK5R1 (cyclin dependent kinase 5 regulatory subunit 1) | -0.921 | 0.847 | -0.0594 | -0.0277 | 0.0238 |
| STK25 (serine/threonine kinase 25) | -0.0151 | 0.931 | -0.0897 | -0.0326 | -0.00672 |
| CDKN1B (cyclin dependent kinase inhibitor 1B) | 0.439 | 0.973 | -0.108 | -0.0274 | -0.0781 |
| HK2 (hexokinase 2) | -1.86 | 0.76 | -0.0292 | -0.0613 | 0.00656 |
| STK38L (serine/threonine kinase 38 like) | -1.04 | 0.836 | 0.105 | -0.0595 | 0.0498 |
| CAD | -0.922 | 0.847 | -0.231 | -0.0707 | -0.207 |
| MASTL (microtubule associated serine/threonine kinase like) | 0.736 | 1 | -0.0298 | 0.0285 | 0.0938 |
| GALK2 (galactokinase 2) | 0.362 | 0.965 | 0.0494 | -0.0345 | -0.0928 |
| MAST4 | 0.736 | 1 | -0.072 | 0 | 0.0116 |
| RSKR (ribosomal protein S6 kinase related) | 0.68 | 0.995 | 0.0461 | 0.0134 | 0.0751 |
| ACVR1 (activin A receptor type 1) | 0.551 | 0.983 | 0.0154 | 0.118 | 0.0769 |
| PDGFRB (platelet derived growth factor receptor beta) | 0.736 | 1 | 0.0827 | 0.0944 | 0.0185 |
| FGFR1 (fibroblast growth factor receptor 1) | -0.0447 | 0.928 | -0.101 | -0.0721 | -0.07 |
| MAP4K5 (mitogen-activated protein kinase kinase kinase kinase 5) | -0.551 | 0.881 | -0.113 | -0.0506 | -0.0263 |
| PCK2 (phosphoenolpyruvate carboxykinase 2, mitochondrial) | 0.733 | 1 | 0.0505 | 0.116 | 0.107 |
| DYRK2 (dual specificity tyrosine phosphorylation regulated kinase 2) | 0.488 | 0.977 | 0.0645 | 0.0244 | 0.112 |
| DGKQ (diacylglycerol kinase theta) | -0.523 | 0.884 | -0.0166 | -0.0126 | 0.035 |
| MAP2K3 (mitogen-activated protein kinase kinase 3) | 0.736 | 1 | -0.0116 | 0.0598 | 0.0239 |
| PLK4 (polo like kinase 4) | -1.38 | 0.805 | -0.0408 | 0.0176 | -0.0574 |
| CDK5 (cyclin dependent kinase 5) | 0.736 | 1 | -0.0761 | 0 | -0.0294 |
| MAPKAPK5 (MAPK activated protein kinase 5) | 0.387 | 0.968 | -0.0909 | 0.00661 | -0.0876 |
| LIMK2 (LIM domain kinase 2) | -0.84 | 0.855 | -0.0603 | -0.145 | -0.132 |
| MAPK4 (mitogen-activated protein kinase 4) | 0.736 | 1 | 0.00899 | 0.127 | 0.073 |
| PIP5K1A (phosphatidylinositol-4-phosphate 5-kinase type 1 alpha) | -1.76 | 0.769 | -0.0714 | -0.0816 | -0.00309 |
| TRIB1 (tribbles pseudokinase 1) | -1.39 | 0.804 | -0.27 | -0.196 | -0.228 |
| PHKA1 (phosphorylase kinase regulatory subunit alpha 1) | 0.736 | 1 | -0.0919 | 0 | 0.075 |
| EIF2AK1 (eukaryotic translation initiation factor 2 alpha kinase 1) | 0.736 | 1 | -0.0505 | 0 | 0.207 |
| CDKN1C (cyclin dependent kinase inhibitor 1C) | 0.487 | 0.977 | -0.0533 | -0.0227 | -0.00682 |
| DLG4 (discs large MAGUK scaffold protein 4) | -1.41 | 0.802 | -0.187 | -0.192 | -0.0145 |
| IGF2R (insulin like growth factor 2 receptor) | 0.736 | 1 | -0.0131 | 0.044 | 0.0735 |
| MAPK6 (mitogen-activated protein kinase 6) | -0.0953 | 0.923 | -0.00304 | 0.0465 | 0.106 |
| KDR (kinase insert domain receptor) | 0.736 | 1 | -0.0919 | 0.0501 | -0.0506 |
| EEF2K (eukaryotic elongation factor 2 kinase) | 0.736 | 1 | 0.112 | 0.1 | 0.137 |
| BRD3 (bromodomain containing 3) | -0.899 | 0.849 | -0.221 | -0.151 | -0.133 |
| N4BP2 (NEDD4 binding protein 2) | 0.306 | 0.96 | -0.0815 | -0.00052 | -0.00749 |
| DYRK3 (dual specificity tyrosine phosphorylation regulated kinase 3) | -0.0105 | 0.931 | -0.0858 | 0.0708 | -0.1 |
| DCLK3 (doublecortin like kinase 3) | 0.736 | 1 | -0.0109 | 0.00369 | -0.0797 |
| CAMK2A (calcium/calmodulin dependent protein kinase II alpha) | 0.116 | 0.943 | -0.13 | -0.0572 | -0.0637 |
| ATR (ATR checkpoint kinase) | 0.736 | 1 | -0.0919 | 0 | -0.0932 |
| TGFBR1 (transforming growth factor beta receptor 1) | 0.736 | 1 | -0.00677 | 0.0939 | 0.0364 |
| EPHA10 (EPH receptor A10) | -0.197 | 0.914 | 0.00501 | 0.0507 | -0.0016 |
| DGKA (diacylglycerol kinase alpha) | 0.736 | 1 | 0.0372 | 0.0123 | 0.125 |
| NUCKS1 | 0.736 | 1 | -0.0919 | 0 | -0.0814 |
| GRK3 (G protein-coupled receptor kinase 3) | -0.501 | 0.886 | -0.136 | -0.114 | -0.162 |
| CAMK2D (calcium/calmodulin dependent protein kinase II delta) | 0.27 | 0.957 | -0.0443 | 0.0649 | -0.0627 |
| RUNX1 (RUNX family transcription factor 1) | 0.232 | 0.954 | -0.00354 | -0.0465 | 0.0243 |
| AKT1 (AKT serine/threonine kinase 1) | 0.382 | 0.967 | -0.0131 | -0.0138 | 0.0377 |
| PIK3CG | -0.0577 | 0.927 | 0.0257 | 0.00989 | 0.0572 |
| MAP2K2 (mitogen-activated protein kinase kinase 2) | 0.248 | 0.955 | 0.064 | 0.0319 | 0.125 |
